Laboratory results from paper PMC9578791.
Results are given in words; binding and its absence hold for the method and conditions named. Binding seen in cells or lysates may run through a third protein. Some binding calls cover weakened binding; strength is not graded here.

Sequences of proteins named here, by UniProt entry; tags and fusion partners are left off.
UniProt P21333: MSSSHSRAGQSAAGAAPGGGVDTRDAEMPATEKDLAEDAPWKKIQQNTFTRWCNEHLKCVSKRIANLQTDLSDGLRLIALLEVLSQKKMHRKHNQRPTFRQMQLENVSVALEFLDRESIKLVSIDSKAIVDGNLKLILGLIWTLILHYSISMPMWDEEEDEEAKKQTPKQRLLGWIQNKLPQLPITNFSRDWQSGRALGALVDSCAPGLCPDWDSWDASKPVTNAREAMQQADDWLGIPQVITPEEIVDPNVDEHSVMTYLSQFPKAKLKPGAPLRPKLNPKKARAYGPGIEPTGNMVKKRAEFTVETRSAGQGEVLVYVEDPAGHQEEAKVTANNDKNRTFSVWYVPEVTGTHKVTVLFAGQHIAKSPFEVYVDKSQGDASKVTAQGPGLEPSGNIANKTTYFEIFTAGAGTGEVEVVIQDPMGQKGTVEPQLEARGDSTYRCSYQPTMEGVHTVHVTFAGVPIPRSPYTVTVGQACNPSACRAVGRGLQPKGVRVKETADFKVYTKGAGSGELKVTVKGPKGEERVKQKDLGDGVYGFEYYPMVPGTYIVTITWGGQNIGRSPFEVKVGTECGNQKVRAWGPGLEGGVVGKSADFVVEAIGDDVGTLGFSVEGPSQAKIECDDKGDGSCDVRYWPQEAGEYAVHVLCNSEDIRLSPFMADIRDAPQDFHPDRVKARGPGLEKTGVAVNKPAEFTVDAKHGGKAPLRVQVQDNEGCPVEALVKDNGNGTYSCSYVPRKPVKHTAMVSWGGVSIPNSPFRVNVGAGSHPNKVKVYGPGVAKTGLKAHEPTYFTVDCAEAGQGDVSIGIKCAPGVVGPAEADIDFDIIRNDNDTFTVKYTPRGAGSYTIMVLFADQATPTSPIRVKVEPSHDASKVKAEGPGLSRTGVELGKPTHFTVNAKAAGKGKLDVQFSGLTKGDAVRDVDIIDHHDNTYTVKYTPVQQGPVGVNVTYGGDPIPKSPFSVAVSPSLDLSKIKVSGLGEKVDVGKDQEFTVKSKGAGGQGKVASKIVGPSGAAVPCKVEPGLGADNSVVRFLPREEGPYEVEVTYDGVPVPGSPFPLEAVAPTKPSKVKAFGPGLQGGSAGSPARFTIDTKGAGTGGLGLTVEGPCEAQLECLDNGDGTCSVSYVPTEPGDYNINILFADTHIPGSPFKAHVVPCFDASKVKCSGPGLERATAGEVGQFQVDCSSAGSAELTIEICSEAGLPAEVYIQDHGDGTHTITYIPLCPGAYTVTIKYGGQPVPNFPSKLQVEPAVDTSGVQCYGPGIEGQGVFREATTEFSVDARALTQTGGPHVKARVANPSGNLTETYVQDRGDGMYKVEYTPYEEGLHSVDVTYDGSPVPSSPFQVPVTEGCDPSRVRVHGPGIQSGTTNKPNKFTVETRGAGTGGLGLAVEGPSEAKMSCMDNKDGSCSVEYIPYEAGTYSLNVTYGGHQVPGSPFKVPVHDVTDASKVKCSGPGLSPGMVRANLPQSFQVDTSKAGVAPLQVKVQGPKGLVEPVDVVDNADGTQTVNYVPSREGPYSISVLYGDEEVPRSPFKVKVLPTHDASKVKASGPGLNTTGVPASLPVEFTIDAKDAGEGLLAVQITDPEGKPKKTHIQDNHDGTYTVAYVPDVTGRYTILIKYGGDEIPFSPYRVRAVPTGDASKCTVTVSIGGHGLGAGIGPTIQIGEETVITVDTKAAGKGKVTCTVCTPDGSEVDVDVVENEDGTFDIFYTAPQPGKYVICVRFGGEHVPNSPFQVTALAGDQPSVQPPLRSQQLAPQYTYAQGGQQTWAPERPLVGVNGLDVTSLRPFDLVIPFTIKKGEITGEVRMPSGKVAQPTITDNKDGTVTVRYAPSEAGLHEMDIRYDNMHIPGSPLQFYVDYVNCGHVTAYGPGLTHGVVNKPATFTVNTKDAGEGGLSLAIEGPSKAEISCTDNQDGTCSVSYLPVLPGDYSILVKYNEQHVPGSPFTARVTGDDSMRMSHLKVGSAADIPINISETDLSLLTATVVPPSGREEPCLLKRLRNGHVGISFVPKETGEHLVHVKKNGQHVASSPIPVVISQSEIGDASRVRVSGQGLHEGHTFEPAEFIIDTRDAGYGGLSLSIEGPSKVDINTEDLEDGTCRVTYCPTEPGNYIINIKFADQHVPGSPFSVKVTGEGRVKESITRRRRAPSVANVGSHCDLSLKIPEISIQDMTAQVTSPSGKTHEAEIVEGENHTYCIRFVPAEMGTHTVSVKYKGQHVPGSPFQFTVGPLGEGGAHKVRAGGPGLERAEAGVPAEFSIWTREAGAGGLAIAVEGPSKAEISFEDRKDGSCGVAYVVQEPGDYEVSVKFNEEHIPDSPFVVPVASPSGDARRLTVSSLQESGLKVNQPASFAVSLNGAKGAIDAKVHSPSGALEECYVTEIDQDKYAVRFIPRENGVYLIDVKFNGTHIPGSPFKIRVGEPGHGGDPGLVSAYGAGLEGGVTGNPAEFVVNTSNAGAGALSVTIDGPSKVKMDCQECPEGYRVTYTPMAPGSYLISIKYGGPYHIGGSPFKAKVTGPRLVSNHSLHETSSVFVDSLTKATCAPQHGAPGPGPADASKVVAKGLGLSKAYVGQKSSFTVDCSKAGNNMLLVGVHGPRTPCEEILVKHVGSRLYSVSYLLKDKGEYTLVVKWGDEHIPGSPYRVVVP

Biological target: T1, thyroid hormone receptor interactor 13 (TRIP13) (UniProt Q15645)
T1 sequence: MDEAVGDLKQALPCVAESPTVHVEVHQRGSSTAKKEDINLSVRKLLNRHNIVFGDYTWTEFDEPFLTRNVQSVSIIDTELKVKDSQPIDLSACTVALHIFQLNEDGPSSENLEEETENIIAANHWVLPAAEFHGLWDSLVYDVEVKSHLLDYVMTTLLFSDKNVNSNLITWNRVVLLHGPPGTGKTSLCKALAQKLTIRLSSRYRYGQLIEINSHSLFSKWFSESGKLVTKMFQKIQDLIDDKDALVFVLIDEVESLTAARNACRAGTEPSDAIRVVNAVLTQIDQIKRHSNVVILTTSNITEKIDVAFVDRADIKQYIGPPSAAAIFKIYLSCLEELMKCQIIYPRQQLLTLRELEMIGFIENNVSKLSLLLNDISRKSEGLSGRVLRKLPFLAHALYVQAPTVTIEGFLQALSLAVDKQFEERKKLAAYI
Test: co-IP; melanoma cell lysate in IP lysis solution; primary antibody and protein A/G beads, 4°C for 4 h; western blot

filamin A (FLNA) (from UniProt P21333 1-2647)
binding: binds
